PMC9779817, “Identification of New Purpuroine Analogues from the Arctic Echinodermata Pteraster militaris That Inhibit FLT3-ITD^+ AML Cell Lines” (International Journal of Molecular Sciences, 2022)
≈ marks a conversion by molar mass, not a printed value.

Tested on: Candida albicans (ATCC 10231)
Assay: Antifungal growth inhibition assay
Assay type: cell-based
Details: ATCC10231, positive control

Compound: C[C@@H]1[C@H](O)[C@@H](C)/C=C/C=C/C=C/C=C/C=C/C=C/C=C/[C@H](O[C@@H]2O[C@H](C)[C@@H](O)[C@H](N)[C@@H]2O)C[C@@H]2O[C@](O)(C[C@@H](O)C[C@@H](O)[C@H](O)CC[C@@H](O)C[C@@H](O)CC(=O)O[C@H]1C)C[C@H](O)[C@H]2C(=O)O [amphotericin-B]
- MIC: 8.7 µM (≈ 8.04 µg/mL)
